Measurements from “University of Dundee, Small-Polar-MMV Screening Library” (2021), ChEMBL document CHEMBL3988442.

Amino acid sequences for entries named in this document (tags omitted).
UniProt E9BF75, entry or part of it: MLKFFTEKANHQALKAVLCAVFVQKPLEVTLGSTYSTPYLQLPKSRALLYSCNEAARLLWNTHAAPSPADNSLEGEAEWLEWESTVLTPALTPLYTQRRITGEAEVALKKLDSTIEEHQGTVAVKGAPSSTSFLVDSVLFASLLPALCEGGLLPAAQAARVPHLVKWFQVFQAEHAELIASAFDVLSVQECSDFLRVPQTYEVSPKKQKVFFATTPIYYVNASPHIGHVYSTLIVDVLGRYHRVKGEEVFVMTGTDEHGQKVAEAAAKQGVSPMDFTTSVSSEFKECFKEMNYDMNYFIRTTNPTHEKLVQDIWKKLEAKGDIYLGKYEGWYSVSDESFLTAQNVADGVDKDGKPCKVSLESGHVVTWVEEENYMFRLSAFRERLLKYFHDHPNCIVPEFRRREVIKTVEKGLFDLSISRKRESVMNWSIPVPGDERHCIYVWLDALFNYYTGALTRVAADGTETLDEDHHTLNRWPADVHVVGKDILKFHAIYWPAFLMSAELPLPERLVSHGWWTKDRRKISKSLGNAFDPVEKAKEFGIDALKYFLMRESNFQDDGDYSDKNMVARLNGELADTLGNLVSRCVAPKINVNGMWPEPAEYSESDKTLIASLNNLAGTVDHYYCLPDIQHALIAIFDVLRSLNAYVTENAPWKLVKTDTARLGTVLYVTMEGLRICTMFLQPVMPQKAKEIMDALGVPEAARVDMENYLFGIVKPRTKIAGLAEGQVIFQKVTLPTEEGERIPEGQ

Results are percentages, as filed.
The record does not define 0% and 100%; most values in the screen are far below 50% and negative numbers occur (in some assays of this library far below -100).
Compounds were drawn at random from those tested, without regard to their results.
A dash means the value is not listed here; it may have been measured.

A: 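Primary screen of methionyl-tRNA synthetase; the read-out is not stated. Target: Methionyl-tRNA synthetase (putative), Leishmania donovani (UniProt E9BF75). The test concentration is not given. Values are per cent inhibition. Of about 68,000 compounds tested this way, about 24 (0.035%) reached 50% or more in at least one test.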
B: 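Assay on Mycobacterium tuberculosis, filed only as a heat shock assay from Cornell; the read-out is not stated. The concentration is filed as 10 mM, unlikely as a test dose, so the dose is not known. Direction is inferred from retests: higher values go with stronger inhibition. About 69,000 compounds were tested under these conditions; 1.4% (about 930) showed 50% or more at least once.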

| # | compound | A | B |
|---|---|---|---|
| 1 | `O=C(Cn1ccnc1)N1C[C@@H]2CC[C@H](Oc3ccc(Cl)cc3)[C@@H]2C1` | 9.04 | - |
| 2 | `CCN(CC)C[C@H]1CN2CC[C@H]1C[C@@H]2CNC(=O)Nc1ccsc1` | 2.747 | - |
| 3 | `CCS(=O)(=O)NC[C@]12COC[C@H]1CN(Cc1cccc(OC)c1)C2` | 9.091 | - |
| 4 | `CCN1CCN2CCCN(S(=O)(=O)c3ccc(S(C)(=O)=O)cc3)C2C1=O` (configuration not stated) | 5.988 | -30.94 |
| 5 | `Cc1c[nH]nc1C1CCN(S(=O)(=O)N(C)C)C1` (configuration not stated) | 2.589 | -13.58 |
| 6 | `CN(CC1CCN(c2ccccc2)C1)c1ccc(Cn2ccnc2)cn1` (configuration not stated) | 18.9 | 105.3 |
| 7 | `Cn1c(CO)cnc1SC(C(=O)NC1CC1)c1ccccc1` (configuration not stated) | 15.53 | -1.291 |
| 8 | `CC(C)C[C@H](N)COc1cccc(F)c1Oc1cccc(Cl)c1` | 47.3 | 103.9 |
| 9 | `Cc1cc(C)n(CC2CCCN2C(=O)c2cncnc2C)n1` (configuration not stated) | 6.032 | 29.62 |
| 10 | `CCS(=O)(=O)N(C)c1ccc(C(=O)N2CCCC(C)C2)cc1` (configuration not stated) | 7.965 | -0.6629 |
| 11 | `Cc1ccc(CN(Cc2ccncc2)C2CC(C)(C)NC(C)(C)C2)o1` | 1.695 | - |
| 12 | `COCCS(=O)(=O)NC(C)c1ccc(-n2nc(C)cc2C)cc1` (configuration not stated) | 15.19 | -19.6 |
| 13 | `COCCC1(C(=O)O)CCCN(C(=O)c2cc(F)ccc2OC)C1` (configuration not stated) | 6.269 | -4.524 |
| 14 | `CCS(=O)(=O)N1CC[C@H]2OCC[C@@]2(C(=O)NC)C1` | 8.791 | - |
| 15 | `CN(Cc1nnc(C2CC2)n1C)S(=O)(=O)Cc1ccccc1F` | 20.41 | -21.83 |
| 16 | `CCS(=O)(=O)CCN1CCCC1c1noc(C2CC2)n1` (configuration not stated) | 0.4695 | 18.97 |
| 17 | `N#Cc1ccc(OC[C@]23COC[C@H]2CN(Cc2ccccn2)C3)nc1` | 17.5 | - |
| 18 | `CN(C)C(=O)CN1CCC2(CCN(S(C)(=O)=O)CC2)C1=O` | 10.08 | -11.48 |
| 19 | `COCc1nc(C(=O)N2CCCC2c2cccc(C)c2)cs1` (configuration not stated) | 21.49 | -5.273 |
| 20 | `CCn1cnnc1CNC(=O)NCC(C)(CC)N1CCOCC1` (configuration not stated) | 23.64 | 1.571 |
| 21 | `CCn1ccnc1CN1CCCN(C(=O)Cc2ccc(C)s2)CC1` | 8.197 | -33.57 |
| 22 | `COc1cccc2c1OCC(CNC(=O)Cc1csc(C(C)=O)c1)C2` (configuration not stated) | 8.591 | -13.99 |
| 23 | `CC(CNS(=O)(=O)CCCC#N)c1ccsc1` (configuration not stated) | 14.25 | 4.348 |
| 24 | `Cc1cn[nH]c1C1COCCN1C(=O)c1ccc2c(c1)CCCC2` (configuration not stated) | 11.64 | 11.52 |
| 25 | `CC(=O)N1CCOC(c2cncc(CCC(=O)N(C)C)n2)C1` (configuration not stated) | 7.349 | 8.031 |
| 26 | `[H][C@@]12CS(=O)(=O)C[C@]1([H])N(C(=O)c1ccc3oc(C)cc3c1)CCN2CCO` | - | -22.05 |
| 27 | `CC(C)c1cnc(CN2C(=O)CC3(CCSC3)C2=O)o1` (configuration not stated) | 5.797 | 24.59 |
| 28 | `CC1c2ncc(COc3cccnc3)n2CCN1Cc1cnn(C)c1.O=C(O)C(F)(F)F.O=C(O)C(F)(F)F` (configuration not stated) | - | -3.106 |
| 29 | `Cc1ccc2c(n1)N(CCN(C)C)CCN(C(=O)c1cccs1)C2.O=C(O)C(F)(F)F.O=C(O)C(F)(F)F` | - | 3.407 |
| 30 | `Cc1ccc(N2CCC3(CN(CCO)CCC3(F)F)C2)nn1` (configuration not stated) | 13.66 | - |
| 31 | `CC(=O)Nc1ccc(SCC(=O)NCC2CCCO2)nn1` (configuration not stated) | 12.54 | 9.701 |
| 32 | `Cc1nccn1-c1cc(CNC(=O)c2ccccn2)ccn1` | 10.34 | -5.368 |
| 33 | `Cc1nc2c(c(=O)n1C)CN(C(=O)C1CCN(C(=O)C3CCC3)CC1)C2` | -3.373 | 14.36 |
| 34 | `Cc1nc(-c2ccsc2)ccc1C(=O)NCCN1CCOCC1` | 15.31 | -2.765 |
| 35 | `CCN(C)C[C@@H]1CN(Cc2cccc(O)c2)C[C@@H]1CO` | 12.06 | -25.57 |
| 36 | `CC(NC(=O)C1CCN(C(=O)C2CC2)CC1)c1nncn1C(C)C` (configuration not stated) | 8.533 | -23.43 |
| 37 | `CCCc1ccc(S(=O)(=O)Nc2ccc(=O)n(C)c2)cc1` | 21.23 | -0.4473 |
| 38 | `Cc1cnc2c(c1NCc1ccc(F)cc1)c(=O)n(C)c(=O)n2C` | 10.06 | -24.25 |
| 39 | `Cc1noc(C)c1C(=O)N1CCCCC1c1cc(C)n2ccnc2n1` (configuration not stated) | 14.84 | -14.89 |
| 40 | `Cc1cc(C)c(C(=O)N[C@H](C(N)=O)c2ccccc2)c(=O)[nH]1` | 4.032 | 3.078 |
| 41 | `Cc1nc(C2CN(Cc3ccc(F)cc3Br)CCO2)no1` (configuration not stated) | 8.629 | -8.424 |
| 42 | `Cc1nc(CCNC(=O)NC2CCN(c3ncccn3)CC2)cs1` | 17.5 | -9.758 |
| 43 | `c1cncc(CN2CCCC(c3nnc(-c4cnccn4)o3)C2)c1` (configuration not stated) | 15.53 | 1.225 |
| 44 | `Cc1cc(-n2cncn2)ccc1C(=O)N(C)CC(F)(F)C(F)(F)F` | 10.77 | -23.77 |
| 45 | `COCc1cccc(CNC(=O)c2c(C)noc2C(C)C)c1` | 7.123 | -9.355 |
| 46 | `O=c1[nH]cccc1-c1nccc(C2(c3ccccc3Cl)CCNCC2)n1` | 7.357 | 30.92 |
| 47 | `C[C@@H]1CN(C(=O)CCc2cnn(C)c2)CC[C@@]1(O)C1CCOCC1` | 4.467 | -5.438 |
| 48 | `O=C(NCCOc1ccc(Cl)cn1)Nc1ccccn1` | 5.415 | -7.052 |
| 49 | `COc1cccc(-n2cc(-c3ccnc(NC(CO)C(C)C)n3)cn2)c1` (configuration not stated) | 4.181 | -5.597 |
| 50 | `NC(=O)N1CCCC(C(=O)NCCOc2ccc3c(c2)OCO3)C1` (configuration not stated) | -0.8065 | -20.44 |
| 51 | `CC(C)Cc1nc(OCC(N)=O)c(C#N)c2c1CCCC2` | 2.586 | -12.21 |
| 52 | `CCOc1ncnc2c1CCN(Cc1cccs1)CC2` | 13.36 | - |
| 53 | `CCCc1nc(CNC(=O)Cc2cc(C)no2)cs1` | 9.028 | -1.102 |
| 54 | `Cc1n[nH]c(C2CN(C(=O)c3ccc(=O)n(C)c3)CCO2)n1` (configuration not stated) | 8.865 | 21.11 |
| 55 | `O=C(O)COc1ccc(Cl)cc1CN1CCC2(CCOCC2)CC1` | -0.5013 | -12.28 |
| 56 | `O=C(CCN1CCOCC1)Nc1cccc(CNCc2cccs2)c1` | 9.218 | -26.41 |
| 57 | `Cc1cc(C(F)F)nn1CC(=O)NCc1nccn1C` | 9.302 | -9.176 |
| 58 | `CC(C)C(=O)N1CCC2(CC1)[C@@H]1CN(C(=O)N(C)C)C[C@@H]1C(=O)N2C` | 5.556 | - |

The first 6 entries again:

| compound | A | B |
|---|---|---|
| `O=C(Cn1ccnc1)N1C[C@@H]2CC[C@H](Oc3ccc(Cl)cc3)[C@@H]2C1` | 9.04 | - |
| `CCN(CC)C[C@H]1CN2CC[C@H]1C[C@@H]2CNC(=O)Nc1ccsc1` | 2.747 | - |
| `CCS(=O)(=O)NC[C@]12COC[C@H]1CN(Cc1cccc(OC)c1)C2` | 9.091 | - |
| `CCN1CCN2CCCN(S(=O)(=O)c3ccc(S(C)(=O)=O)cc3)C2C1=O` (configuration not stated) | 5.988 | -30.94 |
| `Cc1c[nH]nc1C1CCN(S(=O)(=O)N(C)C)C1` (configuration not stated) | 2.589 | -13.58 |
| `CN(CC1CCN(c2ccccc2)C1)c1ccc(Cn2ccnc2)cn1` (configuration not stated) | 18.9 | 105.3 |